{"sequences": {"note": "By UniProt entry, the sequences of proteins in these tests, tags left out.", "UniProt P33176": "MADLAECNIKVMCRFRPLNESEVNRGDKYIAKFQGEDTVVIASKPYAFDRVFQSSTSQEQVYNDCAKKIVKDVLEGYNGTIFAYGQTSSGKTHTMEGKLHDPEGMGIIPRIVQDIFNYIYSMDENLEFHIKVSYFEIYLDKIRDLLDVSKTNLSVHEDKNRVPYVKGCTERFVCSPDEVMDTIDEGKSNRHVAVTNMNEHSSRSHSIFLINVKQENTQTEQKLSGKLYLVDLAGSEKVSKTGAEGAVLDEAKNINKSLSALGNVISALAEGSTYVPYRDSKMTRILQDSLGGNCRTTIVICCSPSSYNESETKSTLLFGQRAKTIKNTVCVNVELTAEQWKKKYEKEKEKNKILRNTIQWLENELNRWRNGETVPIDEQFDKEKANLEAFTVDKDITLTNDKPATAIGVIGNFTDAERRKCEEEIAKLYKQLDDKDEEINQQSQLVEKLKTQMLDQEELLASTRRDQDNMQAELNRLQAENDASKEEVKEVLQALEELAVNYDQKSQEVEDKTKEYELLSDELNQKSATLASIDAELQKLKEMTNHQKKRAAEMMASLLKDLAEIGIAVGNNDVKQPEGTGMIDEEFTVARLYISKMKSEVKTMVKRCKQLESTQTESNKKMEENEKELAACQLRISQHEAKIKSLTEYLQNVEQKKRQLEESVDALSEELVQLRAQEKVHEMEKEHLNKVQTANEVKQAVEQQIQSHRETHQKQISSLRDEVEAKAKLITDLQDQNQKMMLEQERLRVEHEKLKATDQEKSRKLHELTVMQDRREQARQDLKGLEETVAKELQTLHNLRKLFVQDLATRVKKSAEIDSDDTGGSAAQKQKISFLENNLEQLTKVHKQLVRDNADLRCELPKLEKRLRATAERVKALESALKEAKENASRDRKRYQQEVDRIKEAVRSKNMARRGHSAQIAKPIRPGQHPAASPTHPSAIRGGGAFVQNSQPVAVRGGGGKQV"}, "source": "paper PMC12016931", "target": "T1, MT-JIP3 (JIP3 R578C), endogenous in patient cells (human (endogenous in patient fibroblasts and patient iPSC-derived neurons)) (UniProt Q9UPT6)", "T1 sequence": "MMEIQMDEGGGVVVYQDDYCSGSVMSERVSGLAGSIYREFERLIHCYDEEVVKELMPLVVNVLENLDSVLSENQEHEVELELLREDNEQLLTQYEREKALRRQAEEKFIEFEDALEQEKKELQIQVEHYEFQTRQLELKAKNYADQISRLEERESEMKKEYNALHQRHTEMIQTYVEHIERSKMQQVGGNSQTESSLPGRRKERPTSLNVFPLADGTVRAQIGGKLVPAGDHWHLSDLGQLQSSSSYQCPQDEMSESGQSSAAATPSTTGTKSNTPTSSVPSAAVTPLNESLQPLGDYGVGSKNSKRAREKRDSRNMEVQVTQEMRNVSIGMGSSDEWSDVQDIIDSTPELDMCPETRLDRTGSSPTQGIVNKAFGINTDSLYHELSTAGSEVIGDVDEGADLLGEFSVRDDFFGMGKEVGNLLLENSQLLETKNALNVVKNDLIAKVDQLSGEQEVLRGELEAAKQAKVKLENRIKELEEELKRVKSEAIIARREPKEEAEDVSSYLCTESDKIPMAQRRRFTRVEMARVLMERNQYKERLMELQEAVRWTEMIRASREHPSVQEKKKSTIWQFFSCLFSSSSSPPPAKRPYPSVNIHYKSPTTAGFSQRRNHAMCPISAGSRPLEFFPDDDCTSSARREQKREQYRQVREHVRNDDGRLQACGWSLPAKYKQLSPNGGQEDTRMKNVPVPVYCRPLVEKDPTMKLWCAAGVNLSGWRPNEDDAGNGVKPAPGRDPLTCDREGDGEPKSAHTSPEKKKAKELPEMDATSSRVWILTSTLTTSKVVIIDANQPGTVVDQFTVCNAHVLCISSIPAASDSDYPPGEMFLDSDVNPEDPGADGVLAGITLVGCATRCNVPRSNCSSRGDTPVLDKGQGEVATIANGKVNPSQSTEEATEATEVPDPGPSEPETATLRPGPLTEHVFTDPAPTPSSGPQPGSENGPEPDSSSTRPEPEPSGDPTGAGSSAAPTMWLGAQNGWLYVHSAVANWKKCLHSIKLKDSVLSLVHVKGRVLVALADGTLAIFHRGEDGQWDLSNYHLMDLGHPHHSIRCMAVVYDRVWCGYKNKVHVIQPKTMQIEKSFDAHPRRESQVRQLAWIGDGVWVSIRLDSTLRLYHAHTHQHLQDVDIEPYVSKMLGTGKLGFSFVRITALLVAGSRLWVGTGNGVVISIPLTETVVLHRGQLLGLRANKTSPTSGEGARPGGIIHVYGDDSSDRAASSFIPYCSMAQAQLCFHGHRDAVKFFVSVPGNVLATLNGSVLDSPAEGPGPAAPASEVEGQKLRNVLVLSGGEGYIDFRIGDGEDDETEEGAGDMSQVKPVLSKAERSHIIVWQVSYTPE", "assay": "co-IP; lysates of CRISPR control and patient iPSC-derived neurons (Supplemental Figure 3D); precipitating antibody not given", "note": "No constants are given. Whether binding was seen depends on the method and setting. In cells and extracts the contact can be indirect. Some binding calls cover weakened binding; strength is not graded here."}
{"substance": "KIF5B (from UniProt P33176 1-963)", "values": [{"measurement": "binding", "result": "binds"}]}
